The list shows a part of the results.
compound: COc1ccc(Cn2ccc3cc(C)c(C(=O)NO)cc32)cc1; test: dose-dependent thermal stabilisation call (2D-TPP, DLPTP, 10% FDR) (binary (1 = stabilised)); higher = stabilised by the compound; conditions: system: HL-60 intact cells; concentration range 0.04-10 µM
Description: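 2D thermal proteome profiling in intact HL-60 cells treated with BRD-3811 (0, 0.04, 0.29, 2, 10 uM) for 90 min at 37 C, then heated 3 min at one of 12 temperatures (42-63.9 C). Soluble protein was quantified by TMT10 MS. The value is the DLPTP call of the paper: dose-dependent thermal stabilisation over all temperatures at 10% FDR (F-test of a dose-response against a flat model); one experiment, one call per tested protein.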

Chains of the proteins cited; added tags and fusions are not shown. Lines headed by an entry give the natural chain unless they say otherwise; changes in a name come on top.
UniProt P35613: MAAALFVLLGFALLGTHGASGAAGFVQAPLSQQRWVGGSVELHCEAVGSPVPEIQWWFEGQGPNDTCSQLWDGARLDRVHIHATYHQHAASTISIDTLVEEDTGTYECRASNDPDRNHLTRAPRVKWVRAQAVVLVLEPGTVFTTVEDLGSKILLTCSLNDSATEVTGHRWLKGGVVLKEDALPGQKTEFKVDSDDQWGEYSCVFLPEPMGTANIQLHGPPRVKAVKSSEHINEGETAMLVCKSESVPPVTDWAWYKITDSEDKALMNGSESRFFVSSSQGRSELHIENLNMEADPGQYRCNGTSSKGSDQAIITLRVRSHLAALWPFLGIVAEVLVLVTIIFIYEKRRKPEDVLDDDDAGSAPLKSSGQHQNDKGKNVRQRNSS
UniProt Q8TE02: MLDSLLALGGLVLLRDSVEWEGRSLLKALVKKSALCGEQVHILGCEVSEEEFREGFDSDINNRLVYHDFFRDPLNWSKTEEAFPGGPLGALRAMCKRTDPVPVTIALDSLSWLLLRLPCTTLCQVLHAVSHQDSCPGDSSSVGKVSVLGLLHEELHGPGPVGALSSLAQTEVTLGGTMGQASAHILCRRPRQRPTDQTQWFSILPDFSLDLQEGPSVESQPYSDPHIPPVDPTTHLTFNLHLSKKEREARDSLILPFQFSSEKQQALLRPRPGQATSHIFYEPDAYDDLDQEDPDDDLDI
UniProt Q5W111: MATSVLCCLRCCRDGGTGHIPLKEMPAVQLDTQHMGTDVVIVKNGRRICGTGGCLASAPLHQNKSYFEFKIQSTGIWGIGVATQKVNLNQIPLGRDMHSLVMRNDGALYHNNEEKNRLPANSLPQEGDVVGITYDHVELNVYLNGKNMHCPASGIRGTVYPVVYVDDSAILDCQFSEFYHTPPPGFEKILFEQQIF
UniProt Q16611: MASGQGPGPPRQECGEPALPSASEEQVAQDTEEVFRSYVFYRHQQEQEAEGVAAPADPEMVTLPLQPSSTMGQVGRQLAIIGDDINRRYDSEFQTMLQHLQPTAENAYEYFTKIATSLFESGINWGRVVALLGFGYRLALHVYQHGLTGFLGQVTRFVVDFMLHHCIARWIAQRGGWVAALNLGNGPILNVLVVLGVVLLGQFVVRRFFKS
UniProt Q7Z3D6: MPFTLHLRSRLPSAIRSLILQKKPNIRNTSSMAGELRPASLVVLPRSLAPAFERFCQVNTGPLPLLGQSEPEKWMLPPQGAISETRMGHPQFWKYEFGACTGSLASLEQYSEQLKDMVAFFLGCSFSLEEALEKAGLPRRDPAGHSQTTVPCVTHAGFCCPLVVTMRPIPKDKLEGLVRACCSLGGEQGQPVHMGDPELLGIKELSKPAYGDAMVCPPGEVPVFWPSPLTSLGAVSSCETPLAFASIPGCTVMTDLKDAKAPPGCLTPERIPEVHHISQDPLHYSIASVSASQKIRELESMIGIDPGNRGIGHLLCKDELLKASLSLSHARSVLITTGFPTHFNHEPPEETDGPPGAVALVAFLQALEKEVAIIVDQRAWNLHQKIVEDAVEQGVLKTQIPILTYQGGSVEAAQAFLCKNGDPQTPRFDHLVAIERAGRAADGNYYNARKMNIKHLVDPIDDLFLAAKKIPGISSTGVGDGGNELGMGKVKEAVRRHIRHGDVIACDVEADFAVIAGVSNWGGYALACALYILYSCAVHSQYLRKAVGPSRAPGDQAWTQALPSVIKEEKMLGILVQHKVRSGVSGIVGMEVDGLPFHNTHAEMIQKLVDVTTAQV
UniProt Q99766: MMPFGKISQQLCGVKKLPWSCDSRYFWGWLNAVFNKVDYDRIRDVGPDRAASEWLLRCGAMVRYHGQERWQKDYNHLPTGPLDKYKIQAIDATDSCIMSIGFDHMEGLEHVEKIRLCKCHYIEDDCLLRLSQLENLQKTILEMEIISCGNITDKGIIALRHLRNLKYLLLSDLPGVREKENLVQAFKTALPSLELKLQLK
UniProt Q07812, whole entry: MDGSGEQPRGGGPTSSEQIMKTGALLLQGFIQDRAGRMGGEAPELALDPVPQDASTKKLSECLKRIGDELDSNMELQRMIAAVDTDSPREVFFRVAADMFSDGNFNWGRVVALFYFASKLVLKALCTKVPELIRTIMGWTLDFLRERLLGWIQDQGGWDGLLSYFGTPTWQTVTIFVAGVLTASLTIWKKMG
UniProt P21281, whole entry: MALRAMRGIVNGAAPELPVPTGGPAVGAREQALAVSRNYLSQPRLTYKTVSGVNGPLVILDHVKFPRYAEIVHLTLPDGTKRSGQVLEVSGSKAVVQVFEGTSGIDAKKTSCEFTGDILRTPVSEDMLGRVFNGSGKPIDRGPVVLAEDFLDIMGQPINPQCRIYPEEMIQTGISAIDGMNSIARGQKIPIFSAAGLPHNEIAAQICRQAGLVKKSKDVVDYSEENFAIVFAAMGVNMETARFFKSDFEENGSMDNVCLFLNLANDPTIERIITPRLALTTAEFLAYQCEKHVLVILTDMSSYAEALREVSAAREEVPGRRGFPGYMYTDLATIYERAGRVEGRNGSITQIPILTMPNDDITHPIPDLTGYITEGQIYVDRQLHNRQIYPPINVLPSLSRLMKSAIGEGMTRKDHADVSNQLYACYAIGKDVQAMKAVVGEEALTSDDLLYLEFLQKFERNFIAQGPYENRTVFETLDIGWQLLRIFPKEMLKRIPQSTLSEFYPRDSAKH
UniProt O00244: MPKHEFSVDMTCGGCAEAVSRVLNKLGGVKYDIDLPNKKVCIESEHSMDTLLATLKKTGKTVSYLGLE
UniProt Q9BSF4: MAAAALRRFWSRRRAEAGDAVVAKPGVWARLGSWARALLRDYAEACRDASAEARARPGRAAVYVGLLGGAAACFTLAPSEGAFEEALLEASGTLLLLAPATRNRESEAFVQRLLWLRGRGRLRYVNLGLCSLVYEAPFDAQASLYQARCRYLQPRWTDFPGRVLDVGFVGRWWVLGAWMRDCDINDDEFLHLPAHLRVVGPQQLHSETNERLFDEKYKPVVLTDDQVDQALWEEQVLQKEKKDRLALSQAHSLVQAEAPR
UniProt P16615: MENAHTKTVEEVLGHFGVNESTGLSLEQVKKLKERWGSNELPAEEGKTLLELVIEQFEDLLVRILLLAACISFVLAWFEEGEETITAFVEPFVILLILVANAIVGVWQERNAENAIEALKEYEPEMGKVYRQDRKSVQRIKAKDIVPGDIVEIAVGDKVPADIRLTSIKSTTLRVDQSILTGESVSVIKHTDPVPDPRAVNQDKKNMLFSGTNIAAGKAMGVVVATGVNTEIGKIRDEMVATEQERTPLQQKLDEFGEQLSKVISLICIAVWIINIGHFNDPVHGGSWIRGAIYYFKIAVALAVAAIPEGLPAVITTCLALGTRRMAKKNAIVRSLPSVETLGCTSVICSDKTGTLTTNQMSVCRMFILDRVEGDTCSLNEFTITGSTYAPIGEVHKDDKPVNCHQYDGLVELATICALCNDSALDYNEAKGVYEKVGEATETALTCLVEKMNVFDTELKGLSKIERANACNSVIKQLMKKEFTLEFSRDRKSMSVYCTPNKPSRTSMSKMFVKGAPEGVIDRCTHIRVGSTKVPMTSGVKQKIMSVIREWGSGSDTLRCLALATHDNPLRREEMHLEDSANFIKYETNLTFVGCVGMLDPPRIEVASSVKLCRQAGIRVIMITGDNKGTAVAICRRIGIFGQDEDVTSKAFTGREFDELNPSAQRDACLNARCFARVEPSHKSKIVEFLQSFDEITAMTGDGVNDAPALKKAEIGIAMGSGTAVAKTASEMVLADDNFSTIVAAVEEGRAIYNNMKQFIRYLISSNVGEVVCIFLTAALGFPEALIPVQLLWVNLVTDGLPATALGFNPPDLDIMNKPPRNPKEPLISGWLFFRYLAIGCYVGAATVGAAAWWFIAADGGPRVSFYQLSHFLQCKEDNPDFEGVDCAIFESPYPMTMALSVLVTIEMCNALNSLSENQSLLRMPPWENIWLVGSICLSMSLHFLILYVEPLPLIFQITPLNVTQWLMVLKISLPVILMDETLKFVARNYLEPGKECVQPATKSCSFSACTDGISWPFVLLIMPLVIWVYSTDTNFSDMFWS
UniProt Q8N5M1: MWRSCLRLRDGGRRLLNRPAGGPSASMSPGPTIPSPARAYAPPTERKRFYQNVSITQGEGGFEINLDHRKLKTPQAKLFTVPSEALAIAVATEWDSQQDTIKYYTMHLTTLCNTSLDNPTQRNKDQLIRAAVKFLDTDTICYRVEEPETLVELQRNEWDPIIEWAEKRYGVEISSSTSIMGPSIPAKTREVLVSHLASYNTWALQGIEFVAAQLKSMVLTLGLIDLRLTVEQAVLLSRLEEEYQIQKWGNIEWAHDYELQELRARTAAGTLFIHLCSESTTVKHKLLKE
UniProt Q9H0W8: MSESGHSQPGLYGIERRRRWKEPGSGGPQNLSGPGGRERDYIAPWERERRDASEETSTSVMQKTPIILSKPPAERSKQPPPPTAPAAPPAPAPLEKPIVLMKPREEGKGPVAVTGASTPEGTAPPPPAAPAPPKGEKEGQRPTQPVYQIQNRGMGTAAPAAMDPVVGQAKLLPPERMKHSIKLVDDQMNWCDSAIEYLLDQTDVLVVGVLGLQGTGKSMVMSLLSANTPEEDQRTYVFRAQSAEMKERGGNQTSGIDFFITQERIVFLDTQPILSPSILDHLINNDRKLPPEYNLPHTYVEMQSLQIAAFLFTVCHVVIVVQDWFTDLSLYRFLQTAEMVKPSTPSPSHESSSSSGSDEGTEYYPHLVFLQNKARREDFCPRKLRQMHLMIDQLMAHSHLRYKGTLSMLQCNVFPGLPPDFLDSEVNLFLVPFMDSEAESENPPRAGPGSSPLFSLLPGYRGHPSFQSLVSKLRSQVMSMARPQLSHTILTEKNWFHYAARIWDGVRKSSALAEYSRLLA
UniProt P98194: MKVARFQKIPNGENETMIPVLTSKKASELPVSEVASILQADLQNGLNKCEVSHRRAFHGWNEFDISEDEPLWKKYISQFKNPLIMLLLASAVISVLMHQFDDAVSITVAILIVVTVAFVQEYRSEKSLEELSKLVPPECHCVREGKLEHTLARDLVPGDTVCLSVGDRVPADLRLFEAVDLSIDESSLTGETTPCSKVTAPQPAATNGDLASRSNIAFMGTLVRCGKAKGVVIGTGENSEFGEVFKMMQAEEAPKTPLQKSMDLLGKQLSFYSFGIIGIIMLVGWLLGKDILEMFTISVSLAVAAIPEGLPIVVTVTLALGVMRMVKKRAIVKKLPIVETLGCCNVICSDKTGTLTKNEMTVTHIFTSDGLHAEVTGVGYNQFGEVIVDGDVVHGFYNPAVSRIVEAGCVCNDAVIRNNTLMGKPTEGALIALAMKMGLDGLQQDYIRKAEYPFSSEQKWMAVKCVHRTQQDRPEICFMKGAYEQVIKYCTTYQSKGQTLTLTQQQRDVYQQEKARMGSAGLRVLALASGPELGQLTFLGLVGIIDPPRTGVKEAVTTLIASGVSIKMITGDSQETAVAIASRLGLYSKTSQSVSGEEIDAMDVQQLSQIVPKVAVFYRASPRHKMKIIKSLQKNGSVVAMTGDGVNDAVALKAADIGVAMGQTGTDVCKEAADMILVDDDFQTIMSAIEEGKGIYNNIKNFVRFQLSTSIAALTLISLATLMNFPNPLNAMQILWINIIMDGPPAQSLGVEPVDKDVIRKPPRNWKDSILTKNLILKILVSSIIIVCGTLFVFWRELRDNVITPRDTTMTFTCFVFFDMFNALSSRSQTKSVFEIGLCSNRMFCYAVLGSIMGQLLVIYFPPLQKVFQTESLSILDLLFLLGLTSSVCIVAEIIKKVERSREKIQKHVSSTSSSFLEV
UniProt P78537: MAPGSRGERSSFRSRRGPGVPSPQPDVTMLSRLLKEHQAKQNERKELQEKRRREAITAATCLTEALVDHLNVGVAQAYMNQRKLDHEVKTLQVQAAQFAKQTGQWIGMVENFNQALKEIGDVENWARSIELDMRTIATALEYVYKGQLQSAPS
UniProt Q9H0C5: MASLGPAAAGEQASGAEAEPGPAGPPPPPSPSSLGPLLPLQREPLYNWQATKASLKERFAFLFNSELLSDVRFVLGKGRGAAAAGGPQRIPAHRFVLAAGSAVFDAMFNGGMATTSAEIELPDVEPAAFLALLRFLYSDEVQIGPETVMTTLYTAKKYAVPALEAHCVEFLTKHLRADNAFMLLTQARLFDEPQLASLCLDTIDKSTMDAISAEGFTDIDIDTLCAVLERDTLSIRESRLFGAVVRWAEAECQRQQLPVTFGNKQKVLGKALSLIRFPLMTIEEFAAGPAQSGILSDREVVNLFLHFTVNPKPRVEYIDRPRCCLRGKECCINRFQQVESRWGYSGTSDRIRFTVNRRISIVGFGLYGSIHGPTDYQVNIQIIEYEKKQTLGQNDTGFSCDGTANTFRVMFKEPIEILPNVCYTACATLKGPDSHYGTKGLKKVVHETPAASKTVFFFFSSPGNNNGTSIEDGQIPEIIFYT
UniProt A8MVS5: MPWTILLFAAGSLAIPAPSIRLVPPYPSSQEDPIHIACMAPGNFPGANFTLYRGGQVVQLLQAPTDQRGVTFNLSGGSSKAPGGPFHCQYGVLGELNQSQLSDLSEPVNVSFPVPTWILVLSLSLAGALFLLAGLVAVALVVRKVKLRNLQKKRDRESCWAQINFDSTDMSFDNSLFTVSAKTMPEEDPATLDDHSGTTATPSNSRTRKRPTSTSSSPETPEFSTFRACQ

| Target | dose-dependent thermal stabilisation call |
| --- | --- |
| BCL9L (UniProt Q86UU0) | inactive: 0 |
| BSG (UniProt P35613) | inactive: 0 |
| BTF3L4 (UniProt Q96K17) | inactive: 0 |
| C13ORF37 (UniProt Q08AG7) | inactive: 0 |
| C17ORF81 (UniProt Q8TE02) | inactive: 0 |
| C13ORF1 (UniProt Q5W111) | inactive: 0 |
| BASP1 (UniProt P80723) | inactive: 0 |
| BRD4 (UniProt O60885) | inactive: 0 |
| C11ORF31 (UniProt Q8IZQ5) | inactive: 0 |
| BSCL2 (UniProt Q96G97) | inactive: 0 |
| BAK1 (UniProt Q16611) | inactive: 0 |
| C14ORF159 (UniProt Q7Z3D6) | inactive: 0 |
| C14ORF104 (UniProt Q9NVR5) | inactive: 0 |
| BECN1 (UniProt Q14457) | inactive: 0 |
| ATP5S (UniProt Q99766) | inactive: 0 |
| BAX (UniProt Q07812) | inactive: 0 |
| ATP6V1B2 (UniProt P21281) | inactive: 0 |
| ATP6V1F (UniProt Q16864) | inactive: 0 |
| ATOX1 (UniProt O00244) | inactive: 0 |
| C19ORF6 (UniProt Q4ZIN3) | inactive: 0 |

| Target | dose-dependent thermal stabilisation call |
| --- | --- |
| C15ORF24 (UniProt Q9NPA0) | inactive: 0 |
| BCL2 (UniProt P10415) | inactive: 0 |
| C14ORF80 (UniProt Q86SX3) | inactive: 0 |
| C17ORF70 (UniProt Q0VG06) | inactive: 0 |
| C19ORF52 (UniProt Q9BSF4) | inactive: 0 |
| BCAT1 (UniProt P54687) | inactive: 0 |
| ATP2A2 (UniProt P16615) | inactive: 0 |
| ATPAF2 (UniProt Q8N5M1) | inactive: 0 |
| ATRN (UniProt O75882) | inactive: 0 |
| C19ORF61 (UniProt Q9H0W8) | inactive: 0 |
| BRMS1 (UniProt Q9HCU9) | inactive: 0 |
| ATP2C1 (UniProt P98194) | inactive: 0 |
| BLOC1S1 (UniProt P78537) | inactive: 0 |
| BRD2 (UniProt P25440) | inactive: 0 |
| BAT2D1 (UniProt Q9Y520) | inactive: 0 |
| BTBD1 (UniProt Q9H0C5) | inactive: 0 |
| ATP6V0A2 (UniProt Q9Y487) | inactive: 0 |
| C19ORF38 (UniProt A8MVS5) | inactive: 0 |
| B4GALT1 (UniProt P15291) | inactive: 0 |
| BUB1B (UniProt O60566) | inactive: 0 |

From the supplement of paper PMC7666118
